Experimental data: US10125125B2, “N-(heteroaryl)-sulfonamide derivatives useful as S100-inhibitors” (Active Biotech AB, priority 2013, dated 2018)

Assay: Prodrug assay: LC-MS analysis of the formulation samples

| Structure (SMILES) | Parent content found in formulation solution (Formulation solution 0.1 mg/ml) [%] | Parent content found in formulation solution (Formulation solution 1 mg/ml) [%] |
| --- | --- | --- |
| O=S(=O)(Cc1ccc(Cl)c(Cl)c1)Nc1ncc(Br)nc1O [Example 75, N-(5-bromo-3-hydroxypyrazin-2-yl)-1-(3,4-dichlorophenyl)methanesulfonamide] | <0.8 | <0.8 |
| O=S(=O)(Nc1cnc(Cl)cc1O)c1cc(Cl)sc1Cl [Example 73, 2,5-dichloro-N-(6-chloro-4-hydroxypyridin-3-yl)thiophene-3-sulfonamide] | <0.7 | <0.7 |
| O=S(=O)(Cc1cc(Cl)cc(Cl)c1)Nc1ncc(Cl)cc1O [Example 9, N-(5-chloro-3-hydroxypyridin-2-yl)-1-(3,5-dichlorophenyl)methanesulfonamide] | <0.1 | <0.1 |
